PubChem BioAssay AID686938 – Drosophila RNAi Screening Center, 2013
In all, the deposit lists about 23,000 reagents; this is a random part of those with a known target gene and a result. Over the whole deposit, 75 (0.33%) got an active call. 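Raw plate signals without normalisation; calls rest on plate z-scores that were not deposited; ratio present for only 364 wells.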 A plus sign joins genes that one reagent is predicted to hit. No sequences are given here. Not given: the dose of the treatment.

Test: 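Fly genes required for calcium entry once internal stores are emptied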 (primary screen)
Cell system: Drosophila S2R+ cells
Reagents: long dsRNA against Drosophila genes, about 0.25 µg dsRNA per well, roughly 10,000 cells
Time to read-out: 5 days of knock-down before the calcium assay
Conditions: thapsigargin (SERCA pump blocker) to empty calcium stores; entry signal taken 4 min after adding it
Read-out: 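Duplicate raw fluo-4 intensities per well from a plate reader, at rest and four minutes after thapsigargin emptied calcium stores; entry-to-rest ratio filled for only some wells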
Direction: calcium entry signal: higher = stronger calcium signal after store depletion; resting calcium signal: higher = higher resting calcium signal
Units: calcium entry signal in fluorescence units; resting calcium signal in fluorescence units
Active means: 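Called when the plate z-score of the entry-to-rest ratio, mean of duplicates, falls below −3; wells with low overall dye signal (Fmax z below −2) or more than five off-targets excluded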
Meaning of the calls: active = strongly reduced calcium entry; inactive = no strong reduction

How did the screen score CG11694 (GeneID 40985) [DRSC14354]?
calcium entry signal, replicate 1: 3.67e7; calcium entry signal, replicate 2: 3.49e7; resting calcium signal, replicate 1: 1.85e7; resting calcium signal, replicate 2: 1.67e7; call: inactive

For Gyg (GeneID 37419) [DRSC03850], how do the results read?
calcium entry signal, replicate 1: 2.03e7; calcium entry signal, replicate 2: 4.47e7; resting calcium signal, replicate 1: 1.14e7; resting calcium signal, replicate 2: 1.74e7; call: inactive

How did the screen score Gyg (GeneID 37419) [DRSC04556]?
calcium entry signal, replicate 1: 2.90e7; calcium entry signal, replicate 2: 4.24e7; resting calcium signal, replicate 1: 1.56e7; resting calcium signal, replicate 2: 1.87e7; call: inactive

What did the screen give for Obp19d (GeneID 33040) [DRSC20569]?
calcium entry signal, replicate 1: 4.88e7; calcium entry signal, replicate 2: 4.40e7; resting calcium signal, replicate 1: 2.34e7; resting calcium signal, replicate 2: 1.88e7; call: inactive

For Dic3 (GeneID 35763) [DRSC06058], how do the results read?
calcium entry signal, replicate 1: 4.97e7; calcium entry signal, replicate 2: 3.90e7; resting calcium signal, replicate 1: 2.09e7; resting calcium signal, replicate 2: 1.69e7; call: inactive

For Vang (GeneID 35922) [DRSC07570], how do the results read?
calcium entry signal, replicate 1: 3.82e7; calcium entry signal, replicate 2: 3.14e7; resting calcium signal, replicate 1: 1.83e7; resting calcium signal, replicate 2: 1.41e7; call: inactive

How did the screen score CG10237 (GeneID 35222) [DRSC02029]?
calcium entry signal, replicate 1: 5.39e7; resting calcium signal, replicate 1: 2.55e7; call: inactive

With CG13794 (GeneID 34048) [DRSC02298], how do the results read?
calcium entry signal, replicate 1: 3.41e7; calcium entry signal, replicate 2: 4.70e7; resting calcium signal, replicate 1: 1.53e7; resting calcium signal, replicate 2: 1.90e7; call: inactive

Which result is listed for Lpt (GeneID 37795) [DRSC04291]?
calcium entry signal, replicate 1: 4.34e7; calcium entry signal, replicate 2: 4.32e7; resting calcium signal, replicate 1: 2.12e7; resting calcium signal, replicate 2: 2.09e7; call: inactive

With Lpt (GeneID 37795) [DRSC04515], how do the results read?
calcium entry signal, replicate 1: 2.62e7; resting calcium signal, replicate 1: 2.41e7; call: inactive

How did the screen score Osi3 (GeneID 40757) [DRSC12175]?
calcium entry signal, replicate 1: 4.45e7; calcium entry signal, replicate 2: 3.41e7; resting calcium signal, replicate 1: 1.98e7; resting calcium signal, replicate 2: 1.62e7; call: inactive

For ry (GeneID 41605) [DRSC17048], what does the deposit list?
calcium entry signal, replicate 1: 3.76e7; calcium entry signal, replicate 2: 4.70e7; resting calcium signal, replicate 1: 1.62e7; resting calcium signal, replicate 2: 2.03e7; call: inactive

How did the screen score RpL28 + snoRNA:Or-CD12 [DRSC08293]?
calcium entry signal, replicate 1: 1.29e7; calcium entry signal, replicate 2: 1.26e7; resting calcium signal, replicate 1: 8.71e6; resting calcium signal, replicate 2: 9.06e6; call: inactive

What did the screen give for CG11436 (GeneID 31386) [DRSC17783]?
calcium entry signal, replicate 1: 3.94e7; calcium entry signal, replicate 2: 3.90e7; resting calcium signal, replicate 1: 1.80e7; resting calcium signal, replicate 2: 1.79e7; call: inactive

How did the screen score mRpL2 (GeneID 39253) [DRSC10896]?
calcium entry signal, replicate 1: 3.69e7; calcium entry signal, replicate 2: 5.08e7; resting calcium signal, replicate 1: 1.69e7; resting calcium signal, replicate 2: 2.13e7; call: inactive

For CG2736 (GeneID 37998) [DRSC04314], what does the deposit list?
calcium entry signal, replicate 1: 3.78e7; resting calcium signal, replicate 1: 1.79e7; call: inactive

For CG17376 (GeneID 59227) [DRSC21717], how do the results read?
calcium entry signal, replicate 1: 2.67e7; calcium entry signal, replicate 2: 2.89e7; resting calcium signal, replicate 1: 1.34e7; resting calcium signal, replicate 2: 1.33e7; call: inactive

How did the screen score CG43072 (GeneID 12798436) [DRSC11688]?
calcium entry signal, replicate 1: 3.34e7; calcium entry signal, replicate 2: 4.87e7; resting calcium signal, replicate 1: 1.65e7; resting calcium signal, replicate 2: 2.16e7; call: inactive

Which result is listed for msd5 (GeneID 38156) [DRSC08560]?
calcium entry signal, replicate 1: 3.22e7; calcium entry signal, replicate 2: 4.55e7; resting calcium signal, replicate 1: 1.72e7; resting calcium signal, replicate 2: 1.98e7; call: inactive

With CG9919 (GeneID 32598) [DRSC20219], what does the deposit list?
calcium entry signal, replicate 1: 5.29e7; calcium entry signal, replicate 2: 2.65e7; resting calcium signal, replicate 1: 2.48e7; resting calcium signal, replicate 2: 1.17e7; call: inactive

How did the screen score CG4757 (GeneID 41330) [DRSC14130]?
calcium entry signal, replicate 1: 2.29e7; calcium entry signal, replicate 2: 2.15e7; resting calcium signal, replicate 1: 1.20e7; resting calcium signal, replicate 2: 1.21e7; call: inactive

What did the screen give for CG10747 (GeneID 35295) [DRSC02104]?
calcium entry signal, replicate 1: 4.64e7; calcium entry signal, replicate 2: 5.27e7; resting calcium signal, replicate 1: 2.56e7; resting calcium signal, replicate 2: 2.21e7; call: inactive

With CG15643 (GeneID 32489) [DRSC19679], what does the deposit list?
calcium entry signal, replicate 1: 2.97e7; calcium entry signal, replicate 2: 3.71e7; resting calcium signal, replicate 1: 1.56e7; resting calcium signal, replicate 2: 1.71e7; call: inactive

Which result is listed for CG12693 (GeneID 31375) [DRSC17882]?
calcium entry signal, replicate 1: 2.86e7; calcium entry signal, replicate 2: 5.02e7; resting calcium signal, replicate 1: 1.39e7; resting calcium signal, replicate 2: 2.29e7; call: inactive

For CycB3 (GeneID 42971) [DRSC16618], what was measured?
calcium entry signal, replicate 1: 3.64e7; calcium entry signal, replicate 2: 5.53e7; resting calcium signal, replicate 1: 1.79e7; resting calcium signal, replicate 2: 2.27e7; call: inactive

For CG30460 (GeneID 36924) [DRSC06559], what was measured?
calcium entry signal, replicate 1: 4.17e7; calcium entry signal, replicate 2: 5.35e7; resting calcium signal, replicate 1: 1.77e7; resting calcium signal, replicate 2: 2.34e7; call: inactive

For CG30460 (GeneID 36924) [DRSC06560], how do the results read?
calcium entry signal, replicate 1: 2.35e7; calcium entry signal, replicate 2: 2.86e7; resting calcium signal, replicate 1: 1.28e7; resting calcium signal, replicate 2: 1.63e7; call: inactive

What is on record for CG30460 (GeneID 36924) [DRSC23115]?
calcium entry signal, replicate 1: 4.27e7; calcium entry signal, replicate 2: 3.27e7; resting calcium signal, replicate 1: 2.04e7; resting calcium signal, replicate 2: 1.50e7; call: inactive

2 entries from above, reformatted.
Gene	amplicon	calcium entry signal, replicate 1	calcium entry signal, replicate 2	resting calcium signal, replicate 1	resting calcium signal, replicate 2	call
Lpt (GeneID 37795)	DRSC04515	2.62e7		2.41e7		inactive
Osi3 (GeneID 40757)	DRSC12175	4.45e7	3.41e7	1.98e7	1.62e7	inactive
